In PubChem BioAssay AID2417 (National Center for Advancing Translational Sciences (NCATS), 2010):
About 4,300 (3.1%) of roughly 140,000 compounds were called active. Inconclusive means that the source gave no clear call. Such entries were picked first, then a sample of the others.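 How the source made its calls: active means readout at or below -70, meaning at least 70% loss of cells showing the perinucleolar compartment, a nuclear body marking cancer cells; inconclusive means readout between -30 and a set limit; inactive means the rest.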

Experiment: High Content Assay for Compounds that inhibit the Assembly of the Perinucleolar Compartment;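 further: plate controls were DMSO wells for no effect and camptothecin positive control wells for full effect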
Settings: PC3M PTB-GFP, PNC prevalence imaging, 16 h; at 10 µM; active compounds read low
From the text: High Content Assay for Compounds that inhibit the Assembly of the Perinucleolar Compartment NIH Chemical Genomics Center [NCGC] NIH Molecular Libraries Probe Centers Network [MLPCN] MLPCN Grant: MH082371-01A2 Assay Submitter (PI): Sui Huang, Northwestern University, Feinberg School of Medicine, Cell and Molecular Biology, Chicago, Illinois. The perinucleolar compartment (PNC) is a non-membrane-bound nuclear subdomain that is associated with but structurally distinct from the nucleolus. The PNC is a heritable trait, in which the number of PNCs per cell in daughter cells often mimics that of their mother cells. The PNC is heterogeneous in shape, is stable through interphase, disassembles during mitosis, and reassembles in early G1. The PNC is concentrated with newly synthesized RNA polymerase III (pol III) RNAs (MRP RNA, RNAse P H1 RNA, hY RNAs[hY1, 2, 5], Alu RNA, and SRP [7SL] RNA) and RNA binding proteins (nucleolin, PTB, CUG-BP, KSRP, Raver1, Raver2, and Rod). […] Extensive in vitro studies have shown that the PNC is unique to tumor cells and preferentially forms in tumor cells derived from solid tissues. Examination of cancer cell lines from various origins and malignant capacities has shown that PNC prevalence correlates with the malignancy of tumors and has the potential to be developed as a pan-cancer prognostic marker. […] Although the PNC is associated with a DNA locus and a handful of components have been identified, much remains to be investigated regarding the structure and function of the PNC and its mechanistic link to cancer. We have previously shown that PNC prevalence reduction is a valid strategy to identify compounds that can be used to study the structure and function of the PNC. It is necessary, however, to create a screening platform that is able to test a large number of compounds in an automated fashion. Here we report the development and robustness of an automated whole-cell phenotypic image-based screening assay that is capable of identifying such compounds.
PNC High Content Imaging Assay Procedure: 1. Cells at a density of 75-90% confluency in T175 flasks were harvested using 7 ml TrypLE Express cell dissociation reagent. After dissociation (5 minutes room temperature incubation) 10 ml of complete media was added to the TrypLE/cell suspension. The liquid was transferred to a 50 ml Conical tube and cells were pelleted at 1000 RPM for 5 min. Supernatant was removed and cells were resuspended to a final density of 150-200 cells/ul in complete media. 2. Cells were plated in 5 ul volume (750-1000 cells/well) into 1536 well Black uclear Aurora Low Base plates and allowed to recover and adhere at 37 C in a humidified 5% CO2 incubator for 4 hours. 3. After 4 hour incubation, compound libraries (23 nl of […] in columns 5-48) were transferred to the plates in duplicate using a 1536 well pintool. Camptothecin positive control (59 uM final) was added to column 2 and 1:3 dilutions of camptothecin was added to column 3. DMSO negative controls were present in columns 1 and 4. 4. After a 16 hour incubation in the 37 C incubator, cells were fixed by the addition of 4 ul of 6% EM grade paraformaldehyde (containing 0.1% triton X 100) directly to the cells. The plates were incubated at room temperature for 20 minutes. The liquid was removed using a 32 channel Kalypsys aspirator and the fixed cells were washed twice with 5 ul PBS followed by a final addition of 5 ul PBS containing 1 ug/ml Hoechst 33342. 5. Fixed plates were sealed and sotred at 4C until imaged. 6. Plates were imaged on an InCell 1000 automated microscope using a 20 x objective, a standard FITC filter set, no camera binning, and an exposure time of ~100-150 msec/well. 7. Data analysis. PNC prevalence was determined using the Multitarget analysis module from InCell Workstation software (V3.5 ) and analysis was run on a quad core workstation using the Incell Developer Toolbox (V1.7). […]
For O=C(NCCn1cc(SCc2ccccc2F)c2ccccc21)c1c(F)cccc1F, the activity change (PNC), negative = inhibition was inconclusive: -40.2%. With COc1ccc(/C=N/NC(=O)c2ccc3ccccc3c2)cc1OS(=O)(=O)c1ccc(NC(C)=O)cc1 the activity change (PNC), negative = inhibition was inconclusive: -54.6%. With O=C(O)C1CC(=O)N(c2ccc(OCc3c(F)cccc3Cl)cc2)C1 (stereo not given) the activity change (PNC), negative = inhibition was active: -108%. With O=C(CCc1ccccc1O)N/N=C/c1ccc(Sc2cccc3cccnc23)o1 the activity change (PNC), negative = inhibition was inconclusive: -31.8%. With Cc1cc(C(=O)NCc2cccs2)cs1 the activity change (PNC), negative = inhibition was inactive: -8.29%. For N#Cc1c(-c2ccc(Br)cc2)cc(-c2cccnc2)nc1N, the activity change (PNC), negative = inhibition was inactive: -11.1%. For Cc1c(C(=O)N2CCCCC2)oc2ccc(S(=O)(=O)N3CC(C)CC(C)C3)cc12 (stereo not given), the activity change (PNC), negative = inhibition was inactive: -2.81%. In the case of CCOc1ccc(NC(=S)Nc2ccc(OCc3ccccc3)cc2)cc1, the activity change (PNC), negative = inhibition was inactive: 150%. For Oc1ccc2ccccc2c1C=Nc1ccccc1-c1nc2ccccc2[nH]1, the activity change (PNC), negative = inhibition was inactive: 6.97%. With Cc1cc(C)c2c(c1)cc(C)c1nnc(SCC(=O)N3CCCc4ccccc43)n12 the activity change (PNC), negative = inhibition was inconclusive: -63.2%. In the case of Cc1ccc(CNc2nc3ccccc3s2)s1, the activity change (PNC), negative = inhibition was inconclusive: -30.2%. For COc1ccc(S(=O)(=O)Nc2cccc(Cl)c2)cc1OC, the activity change (PNC), negative = inhibition was inactive: 19.2%. With CN(C)CCNc1oc(-c2ccccc2F)nc1C#N the activity change (PNC), negative = inhibition was inconclusive: -56%. For Cc1c(NC(=O)c2ccc3c(c2)C(=O)N(CC2CCCO2)C3=O)cccc1C(=O)O (stereo not given), the activity change (PNC), negative = inhibition was active: -81.3%. For COc1cc(/C=N/NC(=O)c2ccc(F)cc2)ccc1OC(=O)c1ccco1, the activity change (PNC), negative = inhibition was inconclusive: -77%. With C/C(CC(=O)Nc1ccc(N(C)C)cc1)=N\NC(=O)Cc1csc(N)n1 the activity change (PNC), negative = inhibition was inconclusive: -53.9%. With CCOC(=O)c1nn(-c2ccccc2)c2nc(Nc3ccccc3)cc(=O)n12 the activity change (PNC), negative = inhibition was inconclusive: -49.6%. With Cc1oc2ccccc2c1-c1cn2c(n1)SCC2 the activity change (PNC), negative = inhibition was inconclusive: -38.7%. For Cc1ccc(-c2noc(-c3cc4ccccc4oc3=O)n2)cc1, the activity change (PNC), negative = inhibition was inconclusive: -57.8%. For Cc1cc(NC(=O)CSc2nc3c(sc4ccccc43)c(=O)n2CCc2ccccc2)n[nH]1, the activity change (PNC), negative = inhibition was inconclusive: -37.1%. With CN1c2ccccc2C(C)(C)C12C=Cc1cc(O)ccc1O2 (stereo not given) the activity change (PNC), negative = inhibition was inconclusive: -39.8%. For O=S(=O)(NCCOc1cccc2cccnc12)c1ccc(F)cc1, the activity change (PNC), negative = inhibition was inconclusive: -49.2%. In the case of COc1cc([N+](=O)[O-])ccc1NC(=O)Nc1nc2c(s1)CCCC2, the activity change (PNC), negative = inhibition was inconclusive: -40.2%. In the case of COc1ccc(C(=O)Nc2ccc(-c3ccc(NC(=O)c4ccc(OC)cc4)c(OC)c3)cc2OC)cc1, the activity change (PNC), negative = inhibition was inactive: -0.509%. For Cc1ccc(CCNC(=O)c2nnn(-c3cccc(C)c3)c2N)cc1, the activity change (PNC), negative = inhibition was inconclusive: -61.6%. For Nc1c(C(=O)Nc2nccs2)sc2nc(-c3cccs3)cc(C(F)(F)F)c12, the activity change (PNC), negative = inhibition was inactive: -26%. For C/C(CC(=O)NCCCN1CCOCC1)=N\NC(=O)COc1ccc(Cl)cc1, the activity change (PNC), negative = inhibition was inconclusive: -34.8%. With CS(=O)(=O)N1CCN(c2ccc(Cl)cc2[N+](=O)[O-])CC1 the activity change (PNC), negative = inhibition was inconclusive: -37.8%. In the case of Cc1cc(C)cc(NC(=O)CSc2nnc(-c3ccc(S(=O)(=O)N4CCCC4)cc3)o2)c1, the activity change (PNC), negative = inhibition was inconclusive: -33.2%. For O=C(c1cccnc1Nc1ccc2c(c1)CCC2)N1CCOCC1, the activity change (PNC), negative = inhibition was inconclusive: -38%. For COc1ccc(CNC(=O)COC(=O)CCC2CCCCC2)cc1, the activity change (PNC), negative = inhibition was inactive: 36.2%. With Cc1ccc(SCC(=O)NCc2ccco2)cc1 the activity change (PNC), negative = inhibition was inconclusive: -57.6%. In the case of COc1ccc(C(=O)O)cc1S(=O)(=O)NCCCN1CCCC1=O, the activity change (PNC), negative = inhibition was inconclusive: -48.1%. With O=C(O)COc1cccc2nsnc12 the activity change (PNC), negative = inhibition was inconclusive: -57.9%. With CSc1ccc(Cl)c(C(=O)NCC(C)C)c1 the activity change (PNC), negative = inhibition was inconclusive: -58%. With Cc1ccc(-n2c(SCC(=O)OC(C)C)nnc2-c2ccncc2)cc1 the activity change (PNC), negative = inhibition was active: -100%. With CCOc1cc(C(=O)OCC(=O)c2c(N)n(C)c(=O)n(C)c2=O)cc(OCC)c1OCC the activity change (PNC), negative = inhibition was inconclusive: -69.6%. In the case of O=C(O)CCc1c(C(=O)O)[nH]c2ccccc12, the activity change (PNC), negative = inhibition was inconclusive: -35.4%. For CCOC(=O)c1c(NC(=O)CSc2nnc(CNc3ccc(Cl)cc3)o2)sc(C)c1C, the activity change (PNC), negative = inhibition was active: -107%. With COc1ccc(CNC(=O)CSc2nc(-c3ccccc3)cc(-c3cccs3)c2C#N)cc1 the activity change (PNC), negative = inhibition was inconclusive: -47.7%. In the case of Cc1nccn1CCCN1C(=O)CNC1=S, the activity change (PNC), negative = inhibition was inconclusive: -30.8%. With CCC(C(=O)OC)n1cnc2c(cnn2-c2ccc(Cl)cc2)c1=O (stereo not given) the activity change (PNC), negative = inhibition was inconclusive: -33.8%. For COc1ccc(NCc2nnc(SCC(=O)c3ccc(OC)cc3)n2C)cc1, the activity change (PNC), negative = inhibition was inactive: -27.2%. For O=C(Nc1ncc([N+](=O)[O-])s1)C1CCN(S(=O)(=O)c2cnc[nH]2)CC1, the activity change (PNC), negative = inhibition was inconclusive: -39.1%. In the case of CNC(=O)C1CC(=O)N(Cc2ccc3c(c2)OCO3)C(=Nc2ccc(OC)cc2)S1 (stereo not given), the activity change (PNC), negative = inhibition was inconclusive: -63.1%.
